# Data reported in US20250042994A1.
# The chains behind the UniProt entries cited, without tags or fusion partners. Residues count along the entry.
# UniProt P15391, residues 20-186: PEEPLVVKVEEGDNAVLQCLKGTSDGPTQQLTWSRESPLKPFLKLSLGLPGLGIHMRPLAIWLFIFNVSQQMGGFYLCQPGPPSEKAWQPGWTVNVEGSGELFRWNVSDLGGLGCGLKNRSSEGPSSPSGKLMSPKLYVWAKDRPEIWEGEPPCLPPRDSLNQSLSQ
# No constants are given. Whether binding was seen depends on the method and setting. Some results given as binding are weak or reduced against the parent protein; the word gives no strength.
# B1: F3.124.7 (antibody, human IgG1, V domains shown)
# VH: EVQLQQSGPVLVKPGASVKMSCKASGYTFTDYYMNWVKQRHGKSLEWIGISNPYNGGTSYNQKFKDKATLTVDKSSSTAYMELNSLTSEDSAVYYCAREGGTAQPTSGMDYWGQGTSVTVSS
# VL: NIMMTQSPSSLAVSAGEKVTMSCKSSQSVLYSSNQKNYLAWYQQKPGQSPKLLIYWASTRESGVPDRFTGSGSGTDFTLTISSVQPEDPAVYYCHQYRSSYTFGGGTKLEIK
# B2: F5.11.2 (antibody, human IgG1, V domains shown)
# VH: EVQLVESGGDLVKPGGSLKLSCAASGFTFSSYGMSWVRQTPDKRLEWVATISHGGSYTHYPDSVKGRFTISRDNAKNTLYLQMNSLKSEDTAMYYCVRLPITTVEAPYFFDYWGQGTTLTVSS
# VL: DIQMTQTTSSLSASLGDRVTISCRASQDIRNYLNWYQQKPDGTVKLLIYYTSILHSGVPSRFSGSGSGTDYSLTINNLEQEDVATYFCQQGNTLYTFGGGTEVELR
# B3: F3.23.10 (antibody, human IgG1, V domains shown)
# VH: EFQLQQSGPELVKPGASVKISCKASDYSFTDYNMNWVKQSNGASLEWIGIINPNFGSTSYNQKFKGKATLTVDQSSSTAFMQLNSLTSEDSAVYYCARSEYYGSSGFAYWGQGTLVTVSA
# VL: DVVVTQTPLSLPVSFGDQVSISCRSSQSLVNSYGNTYLSWYLHKPGQSPQLLIYGISNRFSGVPDRFSGSGSGTDFTLKITTIKPEDLGMYYCLQGTHQPWTFGGGTKLEIK
# Target: human CD19 exon1-3-his protein (human) (UniProt P15391)
# Test: ELISA, coated at 2 ug/mL
row,Binder,binding
1,B1,binds
2,B2,binds
3,B3,binds

# Target: human CD19 exon1-3-His tag protein (human) (UniProt P15391)
# Test: ELISA, coated human CD19 exon 1-3-His
row,Binder,binding
1,B1,binds
2,B2,binds
3,B3,binds

# Target: human CD19 exon1-3-His tag protein (human) (UniProt P15391)
# Test: ELISA on coated human CD19 exon 1-3-His
row,Binder,binding
1,B1,binds
2,B2,binds
3,B3,binds
